In the test the target is T1, MRE11 (UniProt P49959).
T1 sequence: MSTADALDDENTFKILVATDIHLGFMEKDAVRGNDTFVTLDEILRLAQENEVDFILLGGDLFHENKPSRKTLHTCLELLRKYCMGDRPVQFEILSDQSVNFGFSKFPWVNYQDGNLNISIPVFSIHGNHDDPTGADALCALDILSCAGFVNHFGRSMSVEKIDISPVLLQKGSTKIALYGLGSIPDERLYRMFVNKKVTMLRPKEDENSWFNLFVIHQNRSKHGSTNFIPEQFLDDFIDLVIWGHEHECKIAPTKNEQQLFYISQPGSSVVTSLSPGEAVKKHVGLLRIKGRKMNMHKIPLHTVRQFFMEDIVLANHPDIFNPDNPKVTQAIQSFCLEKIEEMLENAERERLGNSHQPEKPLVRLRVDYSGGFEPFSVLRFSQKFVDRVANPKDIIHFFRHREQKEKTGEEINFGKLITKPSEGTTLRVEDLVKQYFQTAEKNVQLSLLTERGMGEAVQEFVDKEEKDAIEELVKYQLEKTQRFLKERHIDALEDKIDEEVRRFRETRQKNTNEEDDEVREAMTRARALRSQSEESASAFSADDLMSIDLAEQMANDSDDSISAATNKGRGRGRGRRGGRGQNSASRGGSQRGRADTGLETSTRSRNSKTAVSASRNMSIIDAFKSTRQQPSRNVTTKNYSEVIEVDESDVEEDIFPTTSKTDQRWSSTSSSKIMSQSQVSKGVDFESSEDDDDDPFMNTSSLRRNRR
Nature of the test: co-IP; Polk immunoprecipitated and blotted for MRE11, and the reverse co-IP (MRE11 immunoprecipitated, blotted for Polk); cells not named in the main text.

Results are given in words; binding and its absence hold for the method and conditions named. Binding seen in cells or lysates may run through a third protein. Some results given as binding are weak or reduced against the parent protein; the word gives no strength.

B1: DNA polymerase kappa (protein, UniProt Q9UBT6 1-870)
chain: MDSTKEKCDSYKDDLLLRMGLNDNKAGMEGLDKEKINKIIMEATKGSRFYGNELKKEKQVNQRIENMMQQKAQITSQQLRKAQLQVDRFAMELEQSRNLSNTIVHIDMDAFYAAVEMRDNPELKDKPIAVGSMSMLSTSNYHARRFGVRAAMPGFIAKRLCPQLIIVPPNFDKYRAVSKEVKEILADYDPNFMAMSLDEAYLNITKHLEERQNWPEDKRRYFIKMGSSVENDNPGKEVNKLSEHERSISPLLFEESPSDVQPPGDPFQVNFEEQNNPQILQNSVVFGTSAQEVVKEIRFRIEQKTTLTASAGIAPNTMLAKVCSDKNKPNGQYQILPNRQAVMDFIKDLPIRKVSGIGKVTEKMLKALGIITCTELYQQRALLSLLFSETSWHYFLHISLGLGSTHLTRDGERKSMSVERTFSEINKAEEQYSLCQELCSELAQDLQKERLKGRTVTIKLKNVNFEVKTRASTVSSVVSTAEEIFAIAKELLKTEIDADFPHPLRLRLMGVRISSFPNEEDRKHQQRSIIGFLQAGNQALSATECTLEKTDKDKFVKPLEMSHKKSFFDKKRSERKWSHQDTFKCEAVNKQSFQTSQPFQVLKKKMNENLEISENSDDCQILTCPVCFRAQGCISLEALNKHVDECLDGPSISENFKMFSCSHVSATKVNKKENVPASSLCEKQDYEAHPKIKEISSVDCIALVDTIDNSSKAESIDALSNKHSKEECSSLPSKSFNIEHCHQNSSSTVSLENEDVGSFRQEYRQPYLCEVKTGQALVCPVCNVEQKTSDLTLFNVHVDVCLNKSFIQELRKDKFNPVNQPKESSRSTGSSSGVQKAVTRTKRPGLMTKYSTSKKIKPNNPKHTLDIFFK
Turning to B1, the binding entry is given as “binds”.

Values taken from paper PMC12920906.
